Results are given in words; binding and its absence hold for the method and conditions named. Some binding calls cover weakened binding; strength is not graded here. Sequences can lack the tags named with a protein. Values belong to the binder of their own block, whether it stands above or below them.
Target: T1, Full length murine CD25 on HEK cells (mouse, UniProt P01590 22-268)
T1 sequence (looked up): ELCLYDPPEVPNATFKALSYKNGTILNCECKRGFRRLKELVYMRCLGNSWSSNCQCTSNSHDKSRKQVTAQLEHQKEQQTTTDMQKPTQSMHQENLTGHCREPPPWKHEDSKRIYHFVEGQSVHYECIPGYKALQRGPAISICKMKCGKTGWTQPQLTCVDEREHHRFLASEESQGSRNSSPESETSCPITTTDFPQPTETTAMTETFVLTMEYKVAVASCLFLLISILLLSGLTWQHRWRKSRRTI
Experiment: flow cytometry on cells; HEK cells expressing transmembrane full-length mouse CD25 incubated with 1 uM or designated concentrations of His-tagged proteins, extensively washed, then APC-labeled anti-Histag mAb; percent APC+ cells and MFI; only the binder purified

binding: binds
B1: IL2-CD25 fusion protein (other, mouse)
chain: APTSSSTSSSTAEAQQQQQQQQQQQQHLEQLLMDLQELLSRMENYRNLKLPRMLTFKFYLPKQATELKDLQCLEDELGPLRHVLDLTQSKSFQLEDAENFISNIRVTVVKLKGSDNTFECQFDDESATVVDFLRRWIAFCQSIISTSPQGGGGSTRGGGGSTGGGGSGGGGSELCLYDPPEVPNATFKALSYKNGTILNCECKRGFRRLKELVYMRCLGNSWSSNCQCTSNSHDKSRKQVTAQLEHQKEQQTTTDMQKPTQSMHQENLTGHCREPPPWKHEDSKRIYHFVEGQSVHYECIPGYKALQRGPAISICKMKCGKTGWTQPQLTCVDEREHHRFLASEESQGSRNSSPESETSCPITTTDFPQPTETTAMTETFVLTMEYK
notes: signal peptide in the construct; murine IL-2, aa1-169 of NP_032392; 23-aa flexible linker; murine soluble CD25 (IL-2 receptor alpha chain), aa22-236 of NP_032393; Glycosylated; about 70 kDa on SDS-PAGE, reducing and non-reducing; By SEC it runs as higher order multimers; also called IL2-CD25 FP; FP; source: HEK293F, stably transfected (pIRES AcGFP1), expression supernatant, purified (Ni-NTA); not …

binding: binds
B2: CD25-IL2 fusion protein (other, mouse)
chain: ELCLYDPPEVPNATFKALSYKNGTILNCECKRGFRRLKELVYMRCLGNSWSSNCQCTSNSHDKSRKQVTAQLEHQKEQQTTTDMQKPTQSMHQENLTGHCREPPPWKHEDSKRIYHFVEGQSVHYECIPGYKALQRGPAISICKMKCGKTGWTQPQLTCVDEREHHRFLASEESQGSRNSSPESETSCPITTTDFPQPTETTAMTETFVLTMEYKGGGGSTRGGGGSTGGGGSGGGGSSAPTSSSTSSSTAEAQQQQQQQQQQQQHLEQLLMDLQELLSRMENYRNLKLPRMLTFKFYLPKQATELKDLQCLEDELGPLRHVLDLTQSKSFQLEDAENFISNIRVTVVKLKGSDNTFECQFDDESATVVDFLRRWIAFCQSIISTSPQ
notes: signal peptide in the construct; murine soluble CD25 (IL-2 receptor alpha chain), aa1-236 of NP_032393; 23-aa flexible linker; murine IL-2, aa20-169 of NP_032392; Glycosylated; about 70 kDa on SDS-PAGE, reducing and non-reducing; By SEC it runs as higher order multimers; also called CD25-IL2 FP; FP; source: HEK293F, stably transfected (pCMV), expression supernatant, purified (Ni-NTA); not shown: …

binding: binds
B3: Recombinant murine IL-2 (ligand, UniProt P04351 21-169)
chain: APTSSSTSSSTAEAQQQQQQQQQQQQHLEQLLMDLQELLSRMENYRNLKLPRMLTFKFYLPKQATELKDLQCLEDELGPLRHVLDLTQSKSFQLEDAENFISNIRVTVVKLKGSDNTFECQFDDESATVVDFLRRWIAFCQSIISTSPQ
